# From the supplement of paper PMC4604168 (melanoma cell lines)
# This is one part of the list. Repeats are few or missing, and single values can be far off.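 Imaging used 1,536-well plates; nuclei positive for cleaved PARP by antibody were divided by total DNA-stained nuclei to yield the apoptosis fraction. Doses for screening kept most cells viable, and cell lines differ markedly in resting and induced cleaved-PARP levels.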
# How the values were obtained:
# Test in all cases: cleaved PARP positive nuclei fraction relative to DMSO control; melanoma cells; higher = more apoptosis
# Settings in all cases: library dose: low library concentration; 72 h
# WM115 = tested on: WM115
# WM1716 = tested on: WM1716
# WM1745 = tested on: WM1745
# WM3526 = tested on: WM3526
# WM3619 = tested on: WM3619
# WM451Lu = tested on: WM451Lu
Compound,cleaved PARP positive nuclei fraction (WM115) [%],cleaved PARP positive nuclei fraction (WM1716) [%],cleaved PARP positive nuclei fraction (WM1745) [%],cleaved PARP positive nuclei fraction (WM3526) [%],cleaved PARP positive nuclei fraction (WM3619) [%],cleaved PARP positive nuclei fraction (WM451Lu) [%]
"Cn1c(Nc2ccc(C(F)(F)F)cc2)nc2cc(Oc3ccnc(-c4ncc(C(F)(F)F)[nH]4)c3)ccc21 + Cn1cc(/C=C2\C(=O)Nc3cccnc32)c2ccccc21 [GW441756] (first compound 0.08 µM, partner dose 0.4 µM)",824,107,130,128,144,136
"Cn1c(Nc2ccc(C(F)(F)F)cc2)nc2cc(Oc3ccnc(-c4ncc(C(F)(F)F)[nH]4)c3)ccc21 + COc1cc(Nc2ncc(F)c(Nc3ccc4c(n3)NC(=O)C(C)(C)O4)n2)cc(OC)c1OC [Tamatinib] (first compound 0.08 µM, partner dose 0.4 µM)",609,41.5,146,77,103,39.5
"OCc1c[nH]c2ccccc12 [Indole-3-carbinol] + Cc1cc(N2CCOCC2)cc2[nH]c(-c3c(NC[C@@H](O)c4cccc(Cl)c4)cc[nH]c3=O)nc12 [BMS536924] (first compound 0.8 µM, partner dose 0.2 µM)",46.6,34,96.4,150,55.5,164
"COCC[n+]1c2c(n(Cc3cnccn3)c1C)C(=O)c1ccccc1C2=O + Oc1nc(-c2ccc(C(F)(F)F)cc2)nc2c1CSCC2 [XAV939] (first compound 0.0004 µM, partner dose 2 µM)",58.6,114,116,66.2,94.9,145
"O=C(CCCCCCC(=O)Nc1ccccc1)NO [vorinostat] + COc1cc(Nc2ncc(F)c(Nc3ccc4c(n3)NC(=O)C(C)(C)O4)n2)cc(OC)c1OC [Tamatinib] (first compound 0.08 µM, partner dose 0.4 µM)",99.7,121,86.1,56.7,119,368
"C=CCn1c(=O)c2cnc(Nc3ccc(N4CCN(C)CC4)cc3)nc2n1-c1cccc(C(C)(C)O)n1 + O=S(=O)(c1ccccc1)N(CC(F)(F)F)c1ccc(C(O)(C(F)(F)F)C(F)(F)F)cc1 [T0901317] (first compound 0.02 µM, partner dose 1.4 µM)",81.2,236,159,201,118,79.3
"OCc1c[nH]c2ccccc12 [Indole-3-carbinol] + COc1cc2ncnc(Nc3ccc(Oc4ccccc4)cc3)c2cc1OC [SrcI1] (first compound 0.8 µM, partner dose 2 µM)",141,36.9,96.7,35.5,781,43.9
"Cc1cc(N2CCOCC2)cc2[nH]c(-c3c(NC[C@@H](O)c4cccc(Cl)c4)cc[nH]c3=O)nc12 + O=c1cc(-c2cccc3c2Sc2ccccc2S3)oc(N2CCOCC2)c1 [KU55933] (first compound 0.2 µM, partner dose 1 µM)",134,131,111,84.9,107,152
"CO[C@@H]1[C@H](N(C)C(=O)c2ccccc2)C[C@H]2O[C@]1(C)n1c3ccccc3c3c4c(c5c6ccccc6n2c5c31)C(=O)NC4 [Midostaurin] + CCN(CC)CCCCNc1ncc2cc(-c3cc(OC)cc(OC)c3)c(NC(=O)NC(C)(C)C)nc2n1 [PD173074] (first compound 0.08 µM, partner dose 0.1 µM)",70.3,94.2,98.7,79.3,68.3,74.7
"CC1(C)NC(=O)N(c2ccc([N+](=O)[O-])c(C(F)(F)F)c2)C1=O [nilutamide] + CN(C)S(=O)(=O)c1ccc2c(c1)/C(=C/c1cc3c([nH]1)CCCC3)C(=O)N2 [SU6656] (first compound 1 µM, partner dose 0.4 µM)",100,12.5,84.2,60.7,81.6,325
"OCCn1cc(-c2cnc3nnn(Cc4ccc5ncccc5c4)c3n2)cn1 + CC(C)CCN1c2nc(Nc3cc(F)c(O)c(F)c3)ncc2N(C)C(=O)C1C [BID1870] (first compound 1 µM, partner dose 0.2 µM)",135,82.5,95.4,224,88,388
"O=C(CCCCCCC(=O)Nc1ccccc1)NO [vorinostat] + Cc1ccc(NC(=O)c2cccc(N(C)C)c2)cc1NC(=O)c1ccc(O)cc1 [ZM336372] (first compound 0.08 µM, partner dose 2 µM)",140,74.5,98.9,71,103,124
"CC(C)(C)c1cnc(CSc2cnc(NC(=O)C3CCNCC3)s2)o1 + c1cc(-c2cnn3cc(-c4ccc(OCCN5CCCCC5)cc4)cnc23)ccn1 [Dorsomorphin] (first compound 0.01 µM, partner dose 0.4 µM)",157,167,133,136,75.3,165
"C=CCNC1=C2C[C@@H](C)C[C@H](OC)[C@H](O)[C@@H](C)/C=C(\C)[C@H](OC(N)=O)[C@@H](OC)/C=C\C=C(/C)C(=O)NC(=CC1=O)C2=O [Tanespimycin] + Clc1ccc(Nc2nnc(Cc3ccncc3)c3ccccc23)cc1 [vatalanib] (first compound 0.002 µM, partner dose 2 µM)",198,70.1,124,44,152,111
"OCCn1cc(-c2cnc3nnn(Cc4ccc5ncccc5c4)c3n2)cn1 + O=C(Nc1ccccc1)c1cc([N+](=O)[O-])ccc1Cl [GW9662] (first compound 1 µM, partner dose 2 µM)",444,104,83.9,526,49.8,77.1
"Cn1c(Nc2ccc(C(F)(F)F)cc2)nc2cc(Oc3ccnc(-c4ncc(C(F)(F)F)[nH]4)c3)ccc21 + COc1cc(N2CCC(N3CCN(C)CC3)CC2)ccc1Nc1ncc(Cl)c(Nc2ccccc2S(=O)(=O)C(C)C)n1 [NVP-TAE684] (first compound 0.08 µM, partner dose 0.08 µM)",889,95.7,154,153,120,138
"C[C@@H]1CCN(C(=O)CC#N)C[C@@H]1N(C)c1ncnc2[nH]ccc12 + COc1cc(N2CCC(N3CCN(C)CC3)CC2)ccc1Nc1ncc(Cl)c(Nc2ccccc2S(=O)(=O)C(C)C)n1 [NVP-TAE684] (first compound 1 µM, partner dose 0.08 µM)",51.5,117,134,76.9,94.8,33.5
"OCc1c[nH]c2ccccc12 [Indole-3-carbinol] + NC(=O)Nc1cc(-c2cccc(F)c2)sc1C(=O)N[C@H]1CCCNC1 [AZD7762] (first compound 0.8 µM, partner dose 0.02 µM)",68.7,129,97.6,64.3,122,366
"C#Cc1cccc(Nc2ncnc3cc(OCCOC)c(OCCOC)cc23)c1 [erlotinib] + O=C(Nc1cccc(Cl)c1)Nc1ncc(CCNc2ncnc3ccsc23)s1 [SNS314] (first compound 0.8 µM, partner dose 0.0008 µM)",175,101,112,30.8,116,74.8
"COc1cc(Nc2ncc(F)c(Nc3ccc4c(n3)NC(=O)C(C)(C)O4)n2)cc(OC)c1OC [Tamatinib] + Cc1ccc(NC(=O)c2cccc(N(C)C)c2)cc1NC(=O)c1ccc(O)cc1 [ZM336372] (first compound 0.4 µM, partner dose 2 µM)",80.8,118,136,57.9,101,255
"OCc1c[nH]c2ccccc12 [Indole-3-carbinol] + CCc1ccc(CCOc2ccc(CC3SC(=O)NC3=O)cc2)nc1 [pioglitazone] (first compound 0.8 µM, partner dose 2 µM)",116,464,90.6,33.6,91.1,91.8
"Cc1ccc(NC(=O)c2cccc(N(C)C)c2)cc1NC(=O)c1ccc(O)cc1 + CC(C)CCN1c2nc(Nc3cc(F)c(O)c(F)c3)ncc2N(C)C(=O)C1C [BID1870] (first compound 2 µM, partner dose 0.2 µM)",95.5,55.1,94.3,72.7,93.5,24.4
"CC(=O)c1c(C)c2cnc(Nc3ccc(N4CCNCC4)cn3)nc2n(C2CCCC2)c1=O [palbociclib] + O=C(O)c1ccc(-c2c[nH]c3ncc(-c4ccccc4)cc23)cc1C1CCCC1 [GSK650394] (first compound 0.04 µM, partner dose 0.16 µM)",32.3,180,116,75.8,109,81
"C=CCNC1=C2C[C@@H](C)C[C@H](OC)[C@H](O)[C@@H](C)/C=C(\C)[C@H](OC(N)=O)[C@@H](OC)/C=C\C=C(/C)C(=O)NC(=CC1=O)C2=O [Tanespimycin] + Nc1cccc2c1CN(C1CCC(=O)NC1=O)C2=O [lenalidomide] (first compound 0.002 µM, partner dose 1 µM)",60,67.7,98.1,97.5,120,50.3
"Cn1c(Nc2ccc(C(F)(F)F)cc2)nc2cc(Oc3ccnc(-c4ncc(C(F)(F)F)[nH]4)c3)ccc21 + CCc1ccc(CCOc2ccc(CC3SC(=O)NC3=O)cc2)nc1 [pioglitazone] (first compound 0.08 µM, partner dose 2 µM)",404,172,150,310,106,240
"Nc1cccc2c1CN(C1CCC(=O)NC1=O)C2=O (stereo unspecified) [lenalidomide] + C[C@@H]1CCN(C(=O)CC#N)C[C@@H]1N(C)c1ncnc2[nH]ccc12 [CP690550] (first compound 1 µM, partner dose 1 µM)",75.2,101,93,49.7,98.6,36.7

# 2 entries drawn at random from the list so far:
Compound,cleaved PARP positive nuclei fraction (WM115) [%],cleaved PARP positive nuclei fraction (WM1716) [%],cleaved PARP positive nuclei fraction (WM1745) [%],cleaved PARP positive nuclei fraction (WM3526) [%],cleaved PARP positive nuclei fraction (WM3619) [%],cleaved PARP positive nuclei fraction (WM451Lu) [%]
"C=CCNC1=C2C[C@@H](C)C[C@H](OC)[C@H](O)[C@@H](C)/C=C(\C)[C@H](OC(N)=O)[C@@H](OC)/C=C\C=C(/C)C(=O)NC(=CC1=O)C2=O [Tanespimycin] + Nc1cccc2c1CN(C1CCC(=O)NC1=O)C2=O [lenalidomide] (first compound 0.002 µM, partner dose 1 µM)",60,67.7,98.1,97.5,120,50.3
"CC1(C)NC(=O)N(c2ccc([N+](=O)[O-])c(C(F)(F)F)c2)C1=O [nilutamide] + CN(C)S(=O)(=O)c1ccc2c(c1)/C(=C/c1cc3c([nH]1)CCCC3)C(=O)N2 [SU6656] (first compound 1 µM, partner dose 0.4 µM)",100,12.5,84.2,60.7,81.6,325
